Measurements reported in publication PMC10309527.
No constants are given. Whether binding was seen depends on the method and setting. In cells and extracts the contact can be indirect. These calls come from enrichment with a bait or labelling near it, and not all partners need be listed. Sequences can lack the tags named with a protein.

Sequences of proteins named here, by UniProt entry; tags and fusion partners are left off.
UniProt Q15149: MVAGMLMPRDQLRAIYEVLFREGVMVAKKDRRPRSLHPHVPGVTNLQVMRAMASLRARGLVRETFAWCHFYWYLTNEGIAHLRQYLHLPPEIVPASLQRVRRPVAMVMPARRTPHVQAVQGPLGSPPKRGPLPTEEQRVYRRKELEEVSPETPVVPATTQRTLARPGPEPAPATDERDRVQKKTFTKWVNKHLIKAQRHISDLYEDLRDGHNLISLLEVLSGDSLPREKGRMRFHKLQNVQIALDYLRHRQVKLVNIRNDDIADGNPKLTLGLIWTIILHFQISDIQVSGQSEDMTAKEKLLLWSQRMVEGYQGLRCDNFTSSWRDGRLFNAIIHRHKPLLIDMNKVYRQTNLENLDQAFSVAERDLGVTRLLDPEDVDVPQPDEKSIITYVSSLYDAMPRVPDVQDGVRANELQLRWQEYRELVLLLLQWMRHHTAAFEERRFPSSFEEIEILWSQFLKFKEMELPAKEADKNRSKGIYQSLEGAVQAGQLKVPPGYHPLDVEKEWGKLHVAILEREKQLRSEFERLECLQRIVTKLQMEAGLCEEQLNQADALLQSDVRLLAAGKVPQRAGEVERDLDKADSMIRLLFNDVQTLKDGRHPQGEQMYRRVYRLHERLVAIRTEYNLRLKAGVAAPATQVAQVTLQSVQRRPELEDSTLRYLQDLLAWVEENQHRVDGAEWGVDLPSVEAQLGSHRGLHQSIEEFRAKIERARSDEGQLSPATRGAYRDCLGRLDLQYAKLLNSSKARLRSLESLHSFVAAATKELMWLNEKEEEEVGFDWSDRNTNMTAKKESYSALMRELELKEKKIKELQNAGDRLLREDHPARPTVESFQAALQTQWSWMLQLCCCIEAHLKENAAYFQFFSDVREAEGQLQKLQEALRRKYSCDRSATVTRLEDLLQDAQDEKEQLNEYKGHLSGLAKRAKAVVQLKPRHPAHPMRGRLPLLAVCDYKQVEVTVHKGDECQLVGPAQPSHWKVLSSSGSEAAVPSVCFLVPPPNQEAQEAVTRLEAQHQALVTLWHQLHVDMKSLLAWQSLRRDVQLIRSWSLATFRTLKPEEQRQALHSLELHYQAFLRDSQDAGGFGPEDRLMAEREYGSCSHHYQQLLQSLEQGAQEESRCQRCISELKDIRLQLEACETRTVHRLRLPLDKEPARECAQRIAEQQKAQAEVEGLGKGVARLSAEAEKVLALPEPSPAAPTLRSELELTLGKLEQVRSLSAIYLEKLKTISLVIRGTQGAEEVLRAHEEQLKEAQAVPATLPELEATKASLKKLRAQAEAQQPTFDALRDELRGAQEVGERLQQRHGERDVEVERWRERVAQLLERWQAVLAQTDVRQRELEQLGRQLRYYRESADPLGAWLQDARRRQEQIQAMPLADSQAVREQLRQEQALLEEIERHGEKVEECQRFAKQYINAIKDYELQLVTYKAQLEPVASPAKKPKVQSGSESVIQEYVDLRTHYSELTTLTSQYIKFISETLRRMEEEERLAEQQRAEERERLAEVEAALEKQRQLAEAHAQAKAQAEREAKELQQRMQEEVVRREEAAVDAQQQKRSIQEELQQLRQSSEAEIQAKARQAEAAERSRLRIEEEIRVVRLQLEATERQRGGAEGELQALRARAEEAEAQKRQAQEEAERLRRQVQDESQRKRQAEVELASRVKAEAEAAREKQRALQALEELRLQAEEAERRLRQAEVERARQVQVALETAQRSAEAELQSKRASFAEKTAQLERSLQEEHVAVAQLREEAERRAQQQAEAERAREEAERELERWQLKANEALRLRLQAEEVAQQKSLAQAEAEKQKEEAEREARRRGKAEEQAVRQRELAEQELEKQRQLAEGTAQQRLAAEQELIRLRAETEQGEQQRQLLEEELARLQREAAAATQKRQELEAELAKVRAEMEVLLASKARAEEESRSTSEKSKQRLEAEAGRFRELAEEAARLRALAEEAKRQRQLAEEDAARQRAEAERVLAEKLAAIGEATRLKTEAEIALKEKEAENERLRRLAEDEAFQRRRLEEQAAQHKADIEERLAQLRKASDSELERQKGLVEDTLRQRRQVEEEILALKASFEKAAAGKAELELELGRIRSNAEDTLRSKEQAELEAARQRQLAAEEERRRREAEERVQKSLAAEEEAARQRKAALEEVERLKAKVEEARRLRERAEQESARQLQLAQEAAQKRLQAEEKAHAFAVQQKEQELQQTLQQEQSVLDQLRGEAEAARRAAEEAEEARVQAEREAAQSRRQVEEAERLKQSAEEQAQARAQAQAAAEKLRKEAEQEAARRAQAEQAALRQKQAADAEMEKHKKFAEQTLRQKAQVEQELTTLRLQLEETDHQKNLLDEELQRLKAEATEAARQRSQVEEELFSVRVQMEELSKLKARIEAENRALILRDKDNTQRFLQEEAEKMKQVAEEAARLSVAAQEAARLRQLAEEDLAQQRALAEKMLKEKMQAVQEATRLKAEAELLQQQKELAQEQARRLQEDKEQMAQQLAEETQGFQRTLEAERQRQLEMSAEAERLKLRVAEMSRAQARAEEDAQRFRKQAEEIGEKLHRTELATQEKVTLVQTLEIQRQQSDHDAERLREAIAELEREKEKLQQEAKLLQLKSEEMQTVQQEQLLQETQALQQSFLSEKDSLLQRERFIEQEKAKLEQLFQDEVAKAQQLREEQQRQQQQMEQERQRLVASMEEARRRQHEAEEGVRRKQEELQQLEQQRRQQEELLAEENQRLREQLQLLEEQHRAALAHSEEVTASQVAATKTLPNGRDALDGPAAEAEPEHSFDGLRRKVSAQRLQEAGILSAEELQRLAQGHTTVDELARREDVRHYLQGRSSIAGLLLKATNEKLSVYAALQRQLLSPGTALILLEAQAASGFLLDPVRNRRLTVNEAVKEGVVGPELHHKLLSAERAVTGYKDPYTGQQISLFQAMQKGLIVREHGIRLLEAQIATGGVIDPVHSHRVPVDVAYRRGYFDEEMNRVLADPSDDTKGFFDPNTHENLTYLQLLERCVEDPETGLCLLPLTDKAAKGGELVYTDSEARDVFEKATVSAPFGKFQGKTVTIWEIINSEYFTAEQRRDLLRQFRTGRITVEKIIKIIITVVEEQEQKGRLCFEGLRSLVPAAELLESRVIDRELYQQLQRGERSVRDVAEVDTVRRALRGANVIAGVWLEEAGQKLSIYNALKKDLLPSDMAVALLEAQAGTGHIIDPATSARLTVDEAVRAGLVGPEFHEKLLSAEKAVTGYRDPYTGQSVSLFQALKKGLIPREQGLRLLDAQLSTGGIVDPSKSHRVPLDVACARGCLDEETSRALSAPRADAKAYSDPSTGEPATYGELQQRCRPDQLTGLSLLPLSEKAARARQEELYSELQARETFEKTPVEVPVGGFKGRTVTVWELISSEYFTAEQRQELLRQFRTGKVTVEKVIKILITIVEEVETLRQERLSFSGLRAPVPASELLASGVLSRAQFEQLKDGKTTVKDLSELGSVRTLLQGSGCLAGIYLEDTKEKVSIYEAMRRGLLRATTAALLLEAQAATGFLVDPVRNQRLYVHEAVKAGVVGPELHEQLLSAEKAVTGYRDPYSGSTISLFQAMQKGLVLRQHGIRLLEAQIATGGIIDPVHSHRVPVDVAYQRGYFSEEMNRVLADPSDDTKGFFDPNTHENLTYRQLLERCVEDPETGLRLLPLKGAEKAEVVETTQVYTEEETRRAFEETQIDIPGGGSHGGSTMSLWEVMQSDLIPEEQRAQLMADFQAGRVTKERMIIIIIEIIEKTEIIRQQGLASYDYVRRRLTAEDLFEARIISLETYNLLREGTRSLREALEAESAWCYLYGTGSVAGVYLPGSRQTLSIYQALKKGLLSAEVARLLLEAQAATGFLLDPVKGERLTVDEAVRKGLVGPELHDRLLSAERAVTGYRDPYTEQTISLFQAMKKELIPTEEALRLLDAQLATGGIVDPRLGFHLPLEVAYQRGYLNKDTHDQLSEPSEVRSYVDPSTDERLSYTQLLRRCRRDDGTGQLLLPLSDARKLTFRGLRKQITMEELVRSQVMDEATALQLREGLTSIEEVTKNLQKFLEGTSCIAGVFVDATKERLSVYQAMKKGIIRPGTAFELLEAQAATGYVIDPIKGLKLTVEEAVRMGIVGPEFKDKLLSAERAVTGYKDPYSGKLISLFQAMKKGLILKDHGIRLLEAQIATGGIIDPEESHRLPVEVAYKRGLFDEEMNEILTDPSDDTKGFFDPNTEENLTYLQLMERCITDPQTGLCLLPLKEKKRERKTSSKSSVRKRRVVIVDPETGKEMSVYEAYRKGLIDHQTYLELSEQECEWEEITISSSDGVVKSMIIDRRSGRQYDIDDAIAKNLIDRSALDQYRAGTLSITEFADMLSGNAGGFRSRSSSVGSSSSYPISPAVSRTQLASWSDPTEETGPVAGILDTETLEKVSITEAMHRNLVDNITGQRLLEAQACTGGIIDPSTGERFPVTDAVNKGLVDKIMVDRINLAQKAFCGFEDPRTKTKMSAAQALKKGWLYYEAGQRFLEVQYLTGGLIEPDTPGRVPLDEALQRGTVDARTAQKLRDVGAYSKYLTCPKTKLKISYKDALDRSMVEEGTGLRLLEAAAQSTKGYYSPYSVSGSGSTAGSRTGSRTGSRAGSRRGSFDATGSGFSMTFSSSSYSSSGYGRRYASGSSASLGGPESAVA

Biological target: T1, F-box and leucine-rich repeat protein 18 (FBXL18), 3xFlag-tagged (human) (UniProt Q96ME1)
T1 sequence: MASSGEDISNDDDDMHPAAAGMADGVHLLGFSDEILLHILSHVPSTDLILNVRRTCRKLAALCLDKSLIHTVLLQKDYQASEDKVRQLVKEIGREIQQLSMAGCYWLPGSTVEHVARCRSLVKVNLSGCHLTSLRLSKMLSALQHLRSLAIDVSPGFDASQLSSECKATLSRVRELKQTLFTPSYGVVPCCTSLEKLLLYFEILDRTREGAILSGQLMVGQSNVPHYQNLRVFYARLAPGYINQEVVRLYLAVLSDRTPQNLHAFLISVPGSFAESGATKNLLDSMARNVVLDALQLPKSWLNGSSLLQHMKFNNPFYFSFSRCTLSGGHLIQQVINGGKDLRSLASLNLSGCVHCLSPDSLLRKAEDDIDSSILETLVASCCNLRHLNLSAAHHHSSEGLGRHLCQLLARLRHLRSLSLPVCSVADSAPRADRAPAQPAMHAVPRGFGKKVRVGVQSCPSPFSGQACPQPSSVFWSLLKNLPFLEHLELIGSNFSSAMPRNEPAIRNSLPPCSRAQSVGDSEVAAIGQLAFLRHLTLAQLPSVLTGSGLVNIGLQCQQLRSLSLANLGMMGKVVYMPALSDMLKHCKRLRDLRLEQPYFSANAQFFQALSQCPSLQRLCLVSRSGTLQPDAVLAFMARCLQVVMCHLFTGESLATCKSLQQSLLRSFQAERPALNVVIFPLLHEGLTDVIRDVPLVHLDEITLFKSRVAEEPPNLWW
Assay: affinity purification with mass spectrometry; Huh7 cells transfected with Flag-tagged FBXL18; immunoprecipitation with an anti-FBXL18 antibody (p-0026: anti-Flag-FBXL18 antibody); proteins analyzed by mass spectrometry

binding: binds
Substance: PLEC (from UniProt Q15149 1-4684)
